This is one part of the list. Further columns of the screen follow, without active or inactive calls. Compounds called inactive in the main read-out are mostly missing here. The note in brackets gives the kind of curve behind each potency; many fits are weak.
Experiment: qHTS Assay for Lipid Storage Modulators in Drosophila S3 Cells;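 for cell number change: cells counted by Cell Tracker Red CMTPX staining in the red channel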
Settings: BODIPY lipid droplet fluorescence, 18-24 h; for cell number change: measured here: cell count max response, cells fed with added oleic acid
In short: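 Drosophila S3 cells got compounds at several concentrations plus oleic acid (400 uM solution). Laser-scanning cytometry with 488 nm excitation read lipid droplets at 500-530 nm and cells at 575-640 nm. Percent activity was relative to 20 uM Triacsin C.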

[1] = measured here: cell number channel AC50, cells fed with added oleic acid
[2] = measured here: lipid fluorescence (Fed channel) AC50, cells fed with added oleic acid

| SMILES | cell number change [%] | AC50 [1] | AC50 [2] |
| --- | --- | --- | --- |
| O=C(Oc1ccc(Cl)c2ccccc12)N1CCCCC1 | 74 | 29.1 µM [rising, single point] | 29.1 µM [rising, single point] |
| Cc1cc(NC(=O)CSc2nc3ccccc3n2CCC#N)no1 | 56 | 0.00461 µM [rising, full curve, poor fit] |  |
| O=C(Nc1ccc(F)cc1F)Nc1csc2ccccc12 | -28.8 |  | 32.6 µM [falling, partial curve, poor fit] |
| Cc1ccc2nc(CSc3nc(C)ccc3C#N)[nH]c2c1 |  | 0.206 µM [rising, full curve] | 0.206 µM [rising, full curve, poor fit] |
| O=C(CNS(=O)(=O)c1ccccc1)NCc1cccnc1 | 12.2 |  | 0.00651 µM [rising, full curve, poor fit] |
| Cc1cccc(C)c1NC(=O)CCCN1C(=O)C(c2ccccc2)Oc2cccnc21 (stereo unspecified) | -23.7 |  | 29.1 µM [falling, single point] |
| Cc1ccc(S(=O)(=O)N2CCCCC2)cc1NC(=O)c1cccs1 | -2.55 |  | 0.82 µM [rising, single point] |
| O=C(CCc1ccccc1)N=C1SC2CS(=O)(=O)CC2N1c1ccc(F)cc1 (stereo unspecified) | 14.4 | 0.00461 µM [rising, full curve, poor fit] |  |
| O=C(Nc1cc(F)ccc1F)C1CCCO1 (stereo unspecified) | -110 | 29.1 µM [falling, partial curve] | 29.1 µM [falling, partial curve] |
| CCOc1ccc(NS(=O)(=O)c2cc(C(=O)N3CCN(C(C)=O)CC3)ccc2Cl)cc1 | -34.7 | 2.59 µM [falling, partial curve] | 1.3 µM [falling, full curve, poor fit] |
| COc1ccc(-c2nnc(SCC(=O)N3CCCCC3)o2)c(OC)c1 |  |  | 2.06 µM [rising, partial curve] |
| CCc1ccc([C@@H]2CC=C(C(=O)O)[C@H](c3cccc(Cl)c3)N2S(=O)(=O)c2ccc(C)cc2)cc1 | 7.92 | 0.731 µM [falling, single point] | 25.9 µM [falling, single point] |
| CCC(=O)c1ccc(OCC(=O)Nc2cccc(S(=O)(=O)N(C)c3ccccc3)c2)cc1 | 12.5 |  |  |
| O=C(COc1ccc([N+](=O)[O-])cc1)Nc1ccc(N2CCCC2)cc1 | -9.33 |  | 14.6 µM [rising, single point] |
| COc1ccccc1C(=O)O[C@H]1[C@H](Cc2ccccc2)NS(=O)(=O)[C@H]2C[C@@H]3C=C[C@]12O3 | 4.4 |  | 1.16 µM [rising, single point] |
| CSc1ncccc1C(=O)OCC(=O)Nc1ccc2c(c1)CCC2 | 13.7 |  | 16.4 µM [falling, single point] |
| CCC(C)(C)NC(=O)COc1ccc(C(=O)c2ccccc2)cc1 | 0.947 |  | 0.326 µM [rising, full curve, poor fit] |
| CS(=O)(=O)Cc1ccc(C(=O)NC2CCN(Cc3ccccc3)C2)cc1 (stereo unspecified) | 7.14 |  | 29.1 µM [rising, single point] |
| O=C(O)CCCN1C(=O)NC2NC(=O)NC21 (stereo unspecified) | 4.11 |  | 0.82 µM [falling, full curve] |
| CCC(=O)NNC(=S)NC(=O)c1ccc(C)cc1 | -2.63 |  | 1.03 µM [falling, partial curve] |

| SMILES | cell number change [%] | AC50 [1] | AC50 [2] |
| --- | --- | --- | --- |
| CN1CCN(Cc2nc3ccccc3c(=O)n2CC#N)CC1 | 19.7 |  | 0.651 µM [falling, partial curve, poor fit] |
| NC(=O)CSc1nnc(NC(=O)c2ccc(S(=O)(=O)N3CCCCC3)cc2)s1 | -9.5 |  |  |
| CC(=O)c1sc(NCc2ccc(C)cc2)nc1C | -16.2 |  | 6.51 µM [falling, single point] |
| O=C(CSc1nc2ccccc2n1CC(=O)N1CCCC1)Nc1ccc2c(c1)OCO2 | 18.4 |  | 0.184 µM [rising, full curve] |
| CC(C)CCNC(=O)C(c1ccco1)N(Cc1cccs1)C(=O)Cn1nnc2ccccc21 (stereo unspecified) | 1.75 |  | 14.6 µM [rising, partial curve] |
| Nn1c(Cc2cccc3ccccc23)nnc1SCCOc1ccc(Br)cc1 | -33.3 | 5.8 µM [rising, partial curve] |  |
| Cc1nc2cc(F)ccc2n1C1CCN(C(=O)c2c(F)cccc2F)CC1 |  |  | 29.1 µM [falling, single point] |
| COc1ccc(CN2CC(=O)N(c3cc(Cl)ccc3OC)C2=S)cc1OC | -27.3 |  |  |
| COc1cc(OC)c(OC)cc1C#N | 3.08 | 0.00461 µM [falling, full curve, poor fit] |  |
| Cc1cc(S(=O)(=O)N2CCC(N3CCCCC3)CC2)ccc1-n1cnnn1 | 22 |  |  |
| Cc1cc(C)n2nc(N)c(N=Nc3cccc(Cl)c3)c2n1 | -0.729 | 0.731 µM [rising, full curve, poor fit] |  |
| O=C(c1cc(S(=O)(=O)N2CCN(c3ccccc3)CC2)ccc1Cl)N1CCCC(C(F)(F)F)C1 (stereo unspecified) | 3.59 |  | 29.1 µM [falling, single point] |
| Cc1ccc(NC(=O)c2cc3ccccc3cc2O)cc1 | -27 |  | 29.1 µM [falling, single point] |
| CC12COC3(C(=O)Nc4ccc(Cl)cn4)CC1CCC32C (stereo unspecified) | 73.2 | 16.4 µM [rising, partial curve] | 6.51 µM [rising, single point] |
| Cc1ccccc1OCCC(=O)OCC(=O)Nc1cc(S(=O)(=O)N2CCOCC2)ccc1Cl | -4.33 |  |  |
| O=C(OCc1nc2ccccc2[nH]1)C1CCCCC1 |  |  | 18.4 µM [rising, single point] |
| Oc1c(CNc2ccccc2)cc(COCc2ccccc2)c2cccnc12 | -14.2 |  | 9.2 µM [falling, partial curve] |
| CCOC(=O)N1CCN(C(=O)CSc2nnc(-c3cccs3)o2)CC1 | -12.3 |  | 0.00461 µM [rising, full curve, poor fit] |
| CC(=O)Nc1ccc(OCc2ccc(S(=O)(=O)Cc3ccccc3)cc2)cc1 | -2.23 |  | 0.00517 µM [falling, full curve, poor fit] |
| COc1ccc(NC(=O)c2cccnc2Sc2ccccc2)c(OC)c1 | -7.09 |  | 13 µM [rising, partial curve] |

Molecules listed so far that have an NH in an aromatic ring:

| SMILES | cell number change [%] | AC50 [1] | AC50 [2] |
| --- | --- | --- | --- |
| Cc1ccc2nc(CSc3nc(C)ccc3C#N)[nH]c2c1 |  | 0.206 µM [rising, full curve] | 0.206 µM [rising, full curve, poor fit] |
| O=C(OCc1nc2ccccc2[nH]1)C1CCCCC1 |  |  | 18.4 µM [rising, single point] |

Next compounds follow.

| SMILES | cell number change [%] | AC50 [1] | AC50 [2] |
| --- | --- | --- | --- |
| CCCCCc1nc(N)c(C#N)c(-c2ccco2)c1CCCC | 12.2 |  | 11.6 µM [rising, partial curve] |
| c1ccc(OCCCCN2CCCCC2)cc1 | 31.6 |  | 20.6 µM [rising, single point] |
| CCSc1nnc(-c2sc3nnc(-c4ccccc4)c(-c4ccccc4)c3c2N)o1 | -13.4 |  | 4.11 µM [falling, partial curve] |
| COc1ccc(-c2cc3ccccc3cn2)cc1 | -22.9 |  | 1.16 µM [rising, partial curve] |
| O=C(O)c1ccccc1C(=O)N(Cc1ccccc1)Cc1ccccc1 | -56.7 | 7.31 µM [falling, partial curve] | 5.8 µM [falling, full curve] |
| Cc1ccc(C(=O)NN2C(=O)/C(=C/c3cn(C)c4ccccc34)SC2=S)cc1 | 95.4 | 20.6 µM [rising, partial curve] | 25.9 µM [rising, single point] |
| CCN(Cc1ccccc1)S(=O)(=O)c1ccc(C(=O)N(CCCN(C)C)c2nc3cc(C)cc(C)c3s2)cc1 | -80.3 | 18.4 µM [falling, single point] |  |
| O=[N+]([O-])c1ccc(-c2csc3[n+]2CCS3)cc1 | -24 | 1.03 µM [falling, full curve, poor fit] | 0.92 µM [falling, full curve] |
| Oc1cc(Nc2ccc(N3CCCCC3)cc2)cc2cccnc12 | -35.3 | 0.00461 µM [falling, full curve, poor fit] | 0.651 µM [falling, full curve, poor fit] |
| FC(F)(F)c1cc(-c2ccccc2)nc(NC2CCCC2)n1 | -35.7 | 29.1 µM [falling, single point] | 16.4 µM [falling, partial curve, poor fit] |
| COc1ccc(C2=NOC(Cn3nc(C(=O)NCc4cccc(C(F)(F)F)c4)cc3-c3ccccc3)C2)cc1 (stereo unspecified) | 15 |  | 3.26 µM [rising, single point] |
| CN(C(=O)COC(=O)c1cccnc1Nc1ccccc1F)C1CCS(=O)(=O)C1 (stereo unspecified) | -14.2 |  | 29.1 µM [falling, single point] |
| CCOC(=O)C(C)Sc1nnc(-c2ccccc2O)n1-c1ccc(C)cc1 (stereo unspecified) | -16.3 |  | 2.59 µM [rising, single point] |
| c1ccc(CN2CCN(C3=Nc4cccc5cccc3c45)CC2)cc1 | 42.1 | 29.1 µM [rising, single point] | 4.61 µM [rising, full curve] |
| CCC(OC(=O)c1nsc(Cl)c1Cl)C(=O)NCCc1ccccc1 (stereo unspecified) | -13.5 |  | 0.184 µM [rising, full curve, poor fit] |
| COCCNC(=O)COc1ccc(N(C)S(=O)(=O)c2ccc3ccccc3c2)cc1 | 14.1 |  | 2.31 µM [rising, partial curve] |
| CCC(CC)NC(=O)COC(=O)CCC(=O)c1ccc(Cl)cc1 | -33.8 |  |  |
| Cc1ccc(SCC(=O)Nc2nnc(C(C)(C)C)s2)cc1 | 15.8 | 0.00517 µM [rising, full curve, poor fit] |  |
| CCC(=O)Nc1nnc(-c2ccc(OC)cc2)o1 | 55.1 | 9.2 µM [rising, partial curve] | 9.2 µM [rising, partial curve] |
